Some of the results follow.
target: T1, OsSMF1 (Oryza sativa, UniProt Q6ZLB0 1-436); experiment: protein-binding microarray (RPBM); PBS, 2% BSA, 51.3 ng/ul salmon testes DNA, 50 uM zinc acetate, 200 nM TF, 25 C, 1 h; high values mean tight binding; details: protein: recombinant; tags: N-terminal polyhistidine and DsRed monomer fusion (pET32a); chain copies: 2; label: CyDye5-dUTP incorporated in the synthesized complementary strand; 3' TTTTT single-stranded linker to array surface; dsDNA, one strand shown
T1 sequence: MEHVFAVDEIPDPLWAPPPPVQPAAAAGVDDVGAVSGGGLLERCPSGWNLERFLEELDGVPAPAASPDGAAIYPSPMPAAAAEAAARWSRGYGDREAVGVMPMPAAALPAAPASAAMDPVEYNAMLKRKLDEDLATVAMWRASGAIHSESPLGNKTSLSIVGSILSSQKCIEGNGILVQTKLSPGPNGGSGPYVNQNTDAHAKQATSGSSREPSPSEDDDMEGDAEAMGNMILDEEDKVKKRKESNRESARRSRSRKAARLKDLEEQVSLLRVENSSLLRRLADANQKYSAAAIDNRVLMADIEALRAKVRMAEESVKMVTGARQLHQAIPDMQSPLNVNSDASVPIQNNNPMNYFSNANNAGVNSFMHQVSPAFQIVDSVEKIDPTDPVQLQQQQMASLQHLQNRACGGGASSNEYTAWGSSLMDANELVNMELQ
Method in brief: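 Ni–NTA purification followed expression in E. coli BL21-CodonPlus of transcription factors fused N-terminally to a polyhistidine tag and DsRed. At 200 nM in PBS with 2% BSA, salmon testes DNA and 50 µM zinc acetate, the protein was incubated for 1 h at 25 °C with a custom Agilent array that had been primer-extended with Cy5-dUTP and blocked with 2% BSA. After washing, the array was read on an Axon 4000B scanner. The binding signal is per-feature fluorescence intensity in arbitrary units.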

| Sequence | binding signal |
| --- | --- |
| AGTGAAGGTAATTATCTGCCGCACTGCTGATGCTAGCAAACGGAGTCACCTAGTGCAG | 3500 fluorescence intensity (a.u.) |
| ACTTCCAAGGCTGTTTGTCGTGGGTCCACATGTCAGTTACCGGAGTCACCTAGTGCAG | 4650 fluorescence intensity (a.u.) |
| AGTACAGTTACAATGCAATTACACTTCAACTATACTATAGCGGAGTCACCTAGTGCAG | 5920 fluorescence intensity (a.u.) |
| CACGAACGAACGCACGCGCGATGCTTCCGATGATCGAAGCCGGAGTCACCTAGTGCAG | 3920 fluorescence intensity (a.u.) |
| TTGCCAAATATGCCATACGTCATCCAATGGTGGTGACGATCGGAGTCACCTAGTGCAG | 5550 fluorescence intensity (a.u.) |
| ATATTTAATTAACCATACGTTACCATTTATGTGACAGAAGCGGAGTCACCTAGTGCAG | 3190 fluorescence intensity (a.u.) |
| TGCCTAGCGCGAGGATGATGCGGCAAAGTAGGGCTTCGTGCGGAGTCACCTAGTGCAG | 3700 fluorescence intensity (a.u.) |
| TTGCAACGCTCAACAGACAAGAACAAACGACAAACGCACTCGGAGTCACCTAGTGCAG | 38100 fluorescence intensity (a.u.) |
| GAACGGCCGTCTGCCACGTCATTTTCGCCGCCCTCTGAGACGGAGTCACCTAGTGCAG | 18100 fluorescence intensity (a.u.) |
| TAGTATCTTGCAAATGACTGTCTAATACCTGGCCGTCTGACGGAGTCACCTAGTGCAG | 3310 fluorescence intensity (a.u.) |
| GGGCCGCGGTGACGTCGGAAGCTGCCCCGCGCGCGCCAGGCGGAGTCACCTAGTGCAG | 3760 fluorescence intensity (a.u.) |
| GCGCCGTGCGCGTGCGCTGTCGTCACCGCCCACGAGAGGACGGAGTCACCTAGTGCAG | 3670 fluorescence intensity (a.u.) |
| TATGAACAAGCCGTGACGACGTGAGTGAAGCGTGGCGTGGCGGAGTCACCTAGTGCAG | 3530 fluorescence intensity (a.u.) |
| GCCACCCAGAGACGCCTGTTCCACGTGACAAACTTCCCAACGGAGTCACCTAGTGCAG | 5450 fluorescence intensity (a.u.) |
| CTGTTTCATTTTACTTGTCATTTATGACGTGATGACACAGCGGAGTCACCTAGTGCAG | 4840 fluorescence intensity (a.u.) |
| CCGGACTCAGACAGCCTTTGTTACTCAGACAGCGACTCCCCGGAGTCACCTAGTGCAG | 3290 fluorescence intensity (a.u.) |
| TGACCCTTAATTTGGTAGCCGTACAGTGACAGCCCATCTCCGGAGTCACCTAGTGCAG | 4020 fluorescence intensity (a.u.) |
| TTCTTCCTCCGTCAGTTCATCATCTCTCTGTGTGTGTTTTCGGAGTCACCTAGTGCAG | 3570 fluorescence intensity (a.u.) |
| CACCCTTAAATCATATATGTGGTTTTAATATTTGGGGATGCGGAGTCACCTAGTGCAG | 33200 fluorescence intensity (a.u.) |
| CAAGCTGTGCATGACTCTGTACTGGAGTACCCTGTTCGCACGGAGTCACCTAGTGCAG | 3240 fluorescence intensity (a.u.) |
| GGGAGGGAGGGGCTCGCTGTCTCATCACTCTGTAACCGATCGGAGTCACCTAGTGCAG | 3510 fluorescence intensity (a.u.) |

Random excerpt: 3 records from the list

| Sequence | binding signal |
| --- | --- |
| ATATTTAATTAACCATACGTTACCATTTATGTGACAGAAGCGGAGTCACCTAGTGCAG | 3190 fluorescence intensity (a.u.) |
| CCGGACTCAGACAGCCTTTGTTACTCAGACAGCGACTCCCCGGAGTCACCTAGTGCAG | 3290 fluorescence intensity (a.u.) |
| AGTGAAGGTAATTATCTGCCGCACTGCTGATGCTAGCAAACGGAGTCACCTAGTGCAG | 3500 fluorescence intensity (a.u.) |

(listing goes on)

| Sequence | binding signal |
| --- | --- |
| CCTCCCACCTATTAACCGAAGCACGGTATTACACCCTCGACGGAGTCACCTAGTGCAG | 30400 fluorescence intensity (a.u.) |
| CCGGCGGCGCCGACGGCAGGTGGCTCGACGACGTGGCCGCCGGAGTCACCTAGTGCAG | 3380 fluorescence intensity (a.u.) |
| TTTAAGTGGCATTGTCTGTCACCTCCTTCTCCCACTTGTTCGGAGTCACCTAGTGCAG | 3600 fluorescence intensity (a.u.) |
| GAGGATAGCCTCTGGGCAAGGAGGTTGGCATCTTCTTATGCGGAGTCACCTAGTGCAG | 3250 fluorescence intensity (a.u.) |
| TTGCGACTGCTATGTCACCTACTGTGACATCACTACCCAACGGAGTCACCTAGTGCAG | 6170 fluorescence intensity (a.u.) |
| ATTCCCATTGTCATGCTGCCACTAATCTGATTGTGTCACTCGGAGTCACCTAGTGCAG | 4490 fluorescence intensity (a.u.) |
| CACAGCCACCAGTACTGCCTATATATACACGCTCTCTCCACGGAGTCACCTAGTGCAG | 23900 fluorescence intensity (a.u.) |
| CTCAGCCTGACAAAACCTGACGTGTTTCGCGTAGCAACCTCGGAGTCACCTAGTGCAG | 6720 fluorescence intensity (a.u.) |
| GTGATGTTGTGCGTGTAGTGATGTGTGTACATGTACGCTTCGGAGTCACCTAGTGCAG | 3910 fluorescence intensity (a.u.) |
| GACGTTTTCCGAGGAATGACGCTAACTTTCGATAGCTAGGCGGAGTCACCTAGTGCAG | 33600 fluorescence intensity (a.u.) |
| CGCCACCATTGACAGCGAACCGTTGGATCAAATTTAGACGCGGAGTCACCTAGTGCAG | 3800 fluorescence intensity (a.u.) |
| GTTTGTGTTAACTTGACCTGACAAGTCACCTAGAGTCAAACGGAGTCACCTAGTGCAG | 5090 fluorescence intensity (a.u.) |
| AACAGCTAGTCAAACGACGAATGCGAGAGTGCCACGTGTCCGGAGTCACCTAGTGCAG | 22800 fluorescence intensity (a.u.) |
| TTAGTGGTGTACGTCATATATGAAACTAGGTGATTCCCCACGGAGTCACCTAGTGCAG | 5180 fluorescence intensity (a.u.) |
| TGGACTCTGTAAATGACATCATCAAGTTCTGTGAAAATAGCGGAGTCACCTAGTGCAG | 5220 fluorescence intensity (a.u.) |
| TTTGGCTATTTATACGTACCGCGGGAGCCTGTGTGCAGAGCGGAGTCACCTAGTGCAG | 3140 fluorescence intensity (a.u.) |
| GGCAAACCAGTAACTAGAAACCACGTTATTCAAAAGCATTCGGAGTCACCTAGTGCAG | 3940 fluorescence intensity (a.u.) |
| GCTGCTGCTGCTTTTGCTCTTTGTGTGTTCATGTGAGGAGCGGAGTCACCTAGTGCAG | 3800 fluorescence intensity (a.u.) |
| CGTAATATAGGTGTGTAAAAGAAAATCCATATCACGTTCCCGGAGTCACCTAGTGCAG | 28100 fluorescence intensity (a.u.) |
| ATAATGAAAATGAGAATTCATGCCAGCTCTGCAAAGTGGACGGAGTCACCTAGTGCAG | 4780 fluorescence intensity (a.u.) |
| CGACCTGAGGTTGGCGGTCGGCATGACGTCACGGGTGGGACGGAGTCACCTAGTGCAG | 24200 fluorescence intensity (a.u.) |

— publication PMC7819943, “Rice protein-binding microarrays: a tool to detect cis-acting elements near promoter regions in rice”
